Laboratory results published in publication doi:10.1101/2024.03.18.585503.
Positions count from the first letter of the chain named. Results are given in words; binding and its absence hold for the method and conditions named. Binding seen in cells or lysates may run through a third protein. A yes stands for co-enrichment or nearness to the bait. Other partners may have been found. For part of these data: Tags and fused reporters may be left off the sequences shown.

The chains behind the UniProt entries cited, without tags or fusion partners.
UniProt P0CX53: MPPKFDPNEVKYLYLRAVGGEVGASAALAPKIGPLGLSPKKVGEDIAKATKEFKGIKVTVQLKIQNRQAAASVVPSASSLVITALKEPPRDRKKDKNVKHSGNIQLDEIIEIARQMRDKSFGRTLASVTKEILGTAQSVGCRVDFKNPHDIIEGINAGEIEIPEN
UniProt P0CX82: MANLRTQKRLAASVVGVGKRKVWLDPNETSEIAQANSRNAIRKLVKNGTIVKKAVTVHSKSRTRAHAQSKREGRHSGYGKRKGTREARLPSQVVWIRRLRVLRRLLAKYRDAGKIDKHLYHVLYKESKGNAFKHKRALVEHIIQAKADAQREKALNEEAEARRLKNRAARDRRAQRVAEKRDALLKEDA
UniProt P0CX83: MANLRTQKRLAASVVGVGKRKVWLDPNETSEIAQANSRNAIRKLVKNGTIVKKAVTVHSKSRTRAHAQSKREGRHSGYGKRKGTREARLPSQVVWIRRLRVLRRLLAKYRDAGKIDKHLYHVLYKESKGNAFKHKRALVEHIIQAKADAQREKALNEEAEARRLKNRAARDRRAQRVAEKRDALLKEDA
UniProt P0CX54: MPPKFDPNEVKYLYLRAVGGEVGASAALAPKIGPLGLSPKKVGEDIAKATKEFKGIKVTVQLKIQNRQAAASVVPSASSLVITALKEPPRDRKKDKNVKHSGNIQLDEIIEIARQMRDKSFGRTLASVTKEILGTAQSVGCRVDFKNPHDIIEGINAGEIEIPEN

Tests used:
Assay in all cases: affinity purification with mass spectrometry
[1] = target: Rpl12a-FLAG (S. cerevisiae) (UniProt P0CX53)
[2] = target: T1, Rpl34b-FLAG (S. cerevisiae) (UniProt P40525)
T1 sequence: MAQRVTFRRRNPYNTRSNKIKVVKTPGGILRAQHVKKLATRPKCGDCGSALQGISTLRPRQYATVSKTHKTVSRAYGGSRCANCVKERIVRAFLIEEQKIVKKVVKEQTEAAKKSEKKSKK

[3] = target: Rpl19a-FLAG (S. cerevisiae) (UniProt P0CX82)
[4] = target: T2, Rpl34a-FLAG (S. cerevisiae) (UniProt P87262)
T2 sequence: T1 sequence with V90I, S119A

[5] = target: Rpl19b-FLAG (S. cerevisiae) (UniProt P0CX83)
[6] = target: Rpl12b-FLAG (S. cerevisiae) (UniProt P0CX54)

Measured: binding

Rps14b (from UniProt P39516 1-138)
binds: all assays above
